Laboratory results published in PubChem BioAssay AID540276 (National Center for Advancing Translational Sciences (NCATS), 2011).
Several values for one entry are separate records, joined by “and”; a condition that tells them apart may be missing. Equal values may be shown once. Among all 300,000 compounds or so, about 5,400 (1.8%) were called active. This list was built around the results that the source calls inconclusive (neither active nor inactive); the mix of calls is not that of the screen. Calls come from the whole dose curve; tested in HEK293 cells. Potencies of inconclusive entries are doubtful fits and often do not repeat.

test: qHTS for inhibitors of binding or entry into cells for Marburg Virus; details: Marburg virus pseudotyped entry inhibition, cell reporter; series mostly up to 37.8 µM
Potency is the fitted concentration of half-maximal effect.

SMILES | Potency
CCCC(C)C(=O)Nc1ccc(S(=O)(=O)Nc2nccs2)cc1 (stereo not given) | inconclusive: 35.5 µM [activator, single point]
COC(=O)c1ccccc1NC(=S)N(Cc1ccc2c(c1)OCO2)Cc1cc2ccc(OC)cc2[nH]c1=O | inconclusive: 25.9 µM [inhibitor, partial curve, poor fit]
Nc1ccn(C2CCCCO2)c(=O)n1 (stereo not given) | inactive
CCc1ccccc1NC(=O)CSc1nc2c(oc3ccccc32)c(=O)n1-c1ccccc1 | inconclusive: 2.51 µM [inhibitor, full curve]
COc1ccc(CNC(=O)COC(=O)/C=C/c2ccc(S(=O)(=O)N3CCOCC3)cc2)cc1 | inconclusive: 1.26 µM [inhibitor, partial curve, poor fit]
Cc1cc2oc(=O)cc(COC(=O)c3n[nH]c4ccccc34)c2cc1C | inconclusive: 12.6 µM [activator, partial curve, poor fit]
Cc1cc(-c2nnnn2-c2ccc(F)cc2)no1 | inconclusive: 5.62 µM [inhibitor, single point]
CC(=O)c1cccc(NC(=S)NC(=O)c2ccccc2C)c1 | inactive
O=C(OCC(=O)N1CCCCC1)c1cccs1 | inconclusive: 3.55 µM [activator, full curve, poor fit]
COc1cc(N)c(Cl)cc1C(=O)OCC(=O)NCC1CCCCC1 | inconclusive: 31.6 µM [inhibitor, single point]
Cc1ccc(CCNC(=O)C2CCN(S(=O)(=O)c3ccc4c(c3)NC(=O)C(C)S4)CC2)cc1 (stereo not given) | inconclusive: 10 µM [inhibitor, partial curve, poor fit]
O=C(CN1CCCCCCC1)Nc1cc(Cl)cc(Cl)c1 | inconclusive: 20 µM [inhibitor, partial curve, poor fit]
C=C(C)COc1ccc(-c2n[nH]c(C)c2-c2ccc(OC)cc2)c(O)c1 | inconclusive: 35.5 µM [inhibitor, single point]
OCCC1CN(Cc2cccc3nccnc23)CCN1C1CCCC1 (stereo not given) | inactive
CCOC(=O)c1ncn2c1[C@@H]1CCCN1C(=O)c1cc(OC)ccc1-2 | inconclusive: 5.62 µM [inhibitor, single point] and inconclusive: 820 nM [inhibitor, full curve, poor fit]
Cc1c2cnn(CC(=O)NCCc3ccccc3)c(=O)c2c(C)n1Cc1ccccc1Cl | inconclusive: 7.08 µM [inhibitor, partial curve, poor fit]
Cc1[nH]n2c(=O)c(C#N)c(-c3ccccc3)nc2c1-c1ccccc1 | inactive
CCC1CCCCN1CCCNC(=O)c1ccc2c(c1)N(Cc1cccc(C)c1)C(=O)c1ccccc1S2(=O)=O (stereo not given) | inconclusive: 35.5 µM [inhibitor, single point]
COc1ccc(Cl)cc1-c1nc(N)nc(NC2CCCCC2)n1 | inconclusive: 35.5 µM [activator, single point]
O=C(CSc1cccc[n+]1[O-])c1ccc(Cl)s1 | inactive
CCC1CCCCN1CCCNC(=O)c1cc2c(Cl)nc3ccc(C)cc3c2s1 (stereo not given) | inconclusive: 10 µM [inhibitor, partial curve, poor fit]
CCOc1ccc(/C=N/n2c(SC)nnc(C(C)(C)C)c2=O)cc1 | inactive

SMILES | Potency
COc1ccccc1CNC(=O)C1CCN(c2nn3c(=O)cc(C)nc3s2)CC1 | inactive
CC(C)CN(C(=O)COC(=O)c1ccc2ccccc2n1)C1CCS(=O)(=O)C1 (stereo not given) | inconclusive: 1.78 µM [activator, partial curve, poor fit]
CCc1nn(CC(=O)NCCCN(CC)Cc2ccccc2)c(=O)c2cc3sccc3n12 | inactive and inconclusive: 18.3 µM [inhibitor, partial curve, poor fit]
CCc1nc2oc3cc(OC)ccc3c(=O)c2c(=O)n1-c1ccccc1 | inconclusive: 16.4 µM [activator, partial curve, poor fit]
COc1cc(OC)c(N(C)S(=O)(=O)c2cccc(C(=O)OCC(=O)NCc3ccco3)c2)cc1Cl | inactive
COc1ccc(/C=C2\SC(=S)N(CCC(=O)Nc3cccc(O)c3)C2=O)cc1OC | inactive
O=C(Nc1ccccc1C(=O)O)c1cccc(F)c1 | inconclusive: 20 µM [activator, single point]
COc1cccc(NC(=O)Cn2c3ccc(F)cc3c3nc4n(c(=O)c32)CCCS4)c1 | inconclusive: 35.5 µM [inhibitor, partial curve, poor fit]
COc1ccc(CCNC(=O)C(=O)NCC2OCCCN2S(=O)(=O)c2cc(C)ccc2C)cc1 (stereo not given) | inactive
Cc1ccc(S(=O)(=O)NCCC(=O)Nc2cccc(S(=O)(=O)N3CCCC3)c2)cc1C | inconclusive: 4.47 µM [inhibitor, full curve, poor fit]
COC(=O)c1ccc(NC(=O)N2CCc3c([nH]c4ccccc34)C2c2ccc(C)cc2)cc1 (stereo not given) | inconclusive: 14.1 µM [inhibitor, partial curve, poor fit]
Cc1cc(C)nc(Nc2nc3ccccc3s2)n1 | inactive
COc1cccc(NC(=O)CSc2nc(C)cs2)c1 | inconclusive: 3.16 µM [activator, single point]
CN1CCc2nc(NC(=O)c3cccc(S(=O)(=O)N4CCc5ccccc54)c3)sc2C1 | inconclusive: 35.5 µM [inhibitor, single point]
CCOc1ccccc1NS(=O)(=O)c1cn(C)nc1C | inactive
COc1cccc(-c2nnc(-c3ccc4ccccc4c3)o2)c1 | inconclusive: 8.91 µM [inhibitor, partial curve]
CC(Nc1cc(C)cc(C)c1)=[N+](C)CCNS(=O)(=O)c1ccc(Cl)cc1 | active: 10 µM
O=C(Nc1cc(Cl)cc(Cl)c1)C1C2C=CC3(O2)C1C(=O)N(CCCN1CCOCC1)C3C(=O)NC1CCCCC1 (stereo not given) | inactive
O=C(OCC(=O)N1CCc2ccccc2C1)c1cccs1 | inactive
CCOc1ccc(-c2nnn(CC(=O)Nc3cc(OC)cc(OC)c3)n2)cc1OCC | inconclusive: 16.4 µM [inhibitor, partial curve, poor fit]
COc1cc(CCC(=O)OCC(=O)Nc2ncc(Cl)cc2Cl)cc(OC)c1OC | inconclusive: 6.31 µM [inhibitor, single point]
Cn1c(=O)[nH]c(=O)c2c1nc(N/N=C/C(Br)=C/c1ccccc1)n2CCO | inconclusive: 2.82 µM [inhibitor, single point]

SMILES | Potency
N#Cc1ccsc1NC(=O)COC(=O)c1ccc2ccccc2c1 | inactive
Cc1ccc2nc(-c3ccc(NC(=O)Cc4cccs4)cc3)[nH]c2c1 | inactive
CC(C)N1CC(C(=O)Nc2ccc(Br)c(Cl)c2)CC1=O (stereo not given) | inconclusive: 2.82 µM [inhibitor, partial curve, poor fit]
O=C(N/N=C/c1cccs1)c1cc(C2CC2)nc2ccccc12 | inconclusive: 6.31 µM [inhibitor, single point]
Cn1ccnc1C(=O)c1cccc([N+](=O)[O-])c1 | inconclusive: 3.16 µM [activator, partial curve]
CCn1c2ccccc2c2nc3cc(S(=O)(=O)N4CCOCC4)ccc3nc21 | inconclusive: 35.5 µM [inhibitor, partial curve, poor fit]
COc1cc2c(cc1OC)[C@@H](Cc1ccc(OCCC#N)cc1)N(C)CC2 | inconclusive: 5.62 µM [inhibitor, single point]
CCN(CC)CCNC(=O)CCCCn1c(=S)[nH]c2c([nH]c3ccc(OC)cc32)c1=O | inactive
C=CCC(NCCCO)c1cccc(OC)c1OC (stereo not given) | inconclusive: 5.62 µM [activator, single point]
COc1ccc(C2NCCc3sccc32)cc1 (stereo not given) | inconclusive: 22.4 µM [inhibitor, partial curve, poor fit]
Cc1ccc(C2=CSC3=NNC4(CCCCC4)NN23)cc1 | inactive
CC(C)NS(=O)(=O)c1ccc(CCC(=O)N2CCc3ccccc3C2)cc1 | inconclusive: 3.66 µM [inhibitor, full curve]
C=CCn1c(C)c(C(C)=O)cc(NC(=O)c2ccccc2)c1=O | inconclusive: 5.62 µM [inhibitor, partial curve, poor fit]
CCc1nc(C)cn1S(=O)(=O)c1cc(C)c(OC)c(C)c1C | inconclusive: 3.66 µM [inhibitor, single point]
CC(=O)c1c(C)[nH]c(C(=O)NCCC2=CCCCC2)c1C | inconclusive: 11.2 µM [inhibitor, partial curve, poor fit]
Cc1cc(NC(=O)CCC(=O)N(c2ccccc2)C2(C(=O)NC3CCCCC3)CCCC2)no1 | inconclusive: 22.4 µM [inhibitor, single point]
COc1ccc(C)cc1N(CC(=O)NCCSCc1ccco1)S(=O)(=O)c1ccc(C)cc1 | inconclusive: 35.5 µM [inhibitor, partial curve, poor fit]
CN1C2CCC1CC(NC(=O)c1nn(C)c3ccccc13)C2 (stereo not given) | inactive
CCOC(=O)c1cc(C#N)c(N2CCN(C(=O)c3cccc(C(F)(F)F)c3)CC2)nc1C(F)(F)F | active: 5.01 µM
Cc1ccc(NC(=O)N(Cc2cc3cc(C)cc(C)c3[nH]c2=O)CC2COCCO2)cc1 (stereo not given) | inconclusive: 35.5 µM [inhibitor, single point]
COc1ccc(Cl)cc1-c1nc(SCC(=O)NC(C)(C)C)n[nH]1 | inconclusive: 0.794 µM [inhibitor, partial curve, poor fit]

Quoted from the entries so far, 3 compounds:
SMILES | Potency
CCc1ccccc1NC(=O)CSc1nc2c(oc3ccccc32)c(=O)n1-c1ccccc1 | inconclusive: 2.51 µM [inhibitor, full curve]
COc1ccc(CNC(=O)COC(=O)/C=C/c2ccc(S(=O)(=O)N3CCOCC3)cc2)cc1 | inconclusive: 1.26 µM [inhibitor, partial curve, poor fit]
Cc1cc2oc(=O)cc(COC(=O)c3n[nH]c4ccccc34)c2cc1C | inconclusive: 12.6 µM [activator, partial curve, poor fit]
